Test results as given in article PMC3905876.
Results are given in words; binding and its absence hold for the method and conditions named. In cells and extracts the contact can be indirect. Some binding calls cover weakened binding; strength is not graded here. For some of these results: Sequences can lack the tags named with a protein.

By UniProt entry, the sequences of proteins in these tests, tags left out.
UniProt O60244: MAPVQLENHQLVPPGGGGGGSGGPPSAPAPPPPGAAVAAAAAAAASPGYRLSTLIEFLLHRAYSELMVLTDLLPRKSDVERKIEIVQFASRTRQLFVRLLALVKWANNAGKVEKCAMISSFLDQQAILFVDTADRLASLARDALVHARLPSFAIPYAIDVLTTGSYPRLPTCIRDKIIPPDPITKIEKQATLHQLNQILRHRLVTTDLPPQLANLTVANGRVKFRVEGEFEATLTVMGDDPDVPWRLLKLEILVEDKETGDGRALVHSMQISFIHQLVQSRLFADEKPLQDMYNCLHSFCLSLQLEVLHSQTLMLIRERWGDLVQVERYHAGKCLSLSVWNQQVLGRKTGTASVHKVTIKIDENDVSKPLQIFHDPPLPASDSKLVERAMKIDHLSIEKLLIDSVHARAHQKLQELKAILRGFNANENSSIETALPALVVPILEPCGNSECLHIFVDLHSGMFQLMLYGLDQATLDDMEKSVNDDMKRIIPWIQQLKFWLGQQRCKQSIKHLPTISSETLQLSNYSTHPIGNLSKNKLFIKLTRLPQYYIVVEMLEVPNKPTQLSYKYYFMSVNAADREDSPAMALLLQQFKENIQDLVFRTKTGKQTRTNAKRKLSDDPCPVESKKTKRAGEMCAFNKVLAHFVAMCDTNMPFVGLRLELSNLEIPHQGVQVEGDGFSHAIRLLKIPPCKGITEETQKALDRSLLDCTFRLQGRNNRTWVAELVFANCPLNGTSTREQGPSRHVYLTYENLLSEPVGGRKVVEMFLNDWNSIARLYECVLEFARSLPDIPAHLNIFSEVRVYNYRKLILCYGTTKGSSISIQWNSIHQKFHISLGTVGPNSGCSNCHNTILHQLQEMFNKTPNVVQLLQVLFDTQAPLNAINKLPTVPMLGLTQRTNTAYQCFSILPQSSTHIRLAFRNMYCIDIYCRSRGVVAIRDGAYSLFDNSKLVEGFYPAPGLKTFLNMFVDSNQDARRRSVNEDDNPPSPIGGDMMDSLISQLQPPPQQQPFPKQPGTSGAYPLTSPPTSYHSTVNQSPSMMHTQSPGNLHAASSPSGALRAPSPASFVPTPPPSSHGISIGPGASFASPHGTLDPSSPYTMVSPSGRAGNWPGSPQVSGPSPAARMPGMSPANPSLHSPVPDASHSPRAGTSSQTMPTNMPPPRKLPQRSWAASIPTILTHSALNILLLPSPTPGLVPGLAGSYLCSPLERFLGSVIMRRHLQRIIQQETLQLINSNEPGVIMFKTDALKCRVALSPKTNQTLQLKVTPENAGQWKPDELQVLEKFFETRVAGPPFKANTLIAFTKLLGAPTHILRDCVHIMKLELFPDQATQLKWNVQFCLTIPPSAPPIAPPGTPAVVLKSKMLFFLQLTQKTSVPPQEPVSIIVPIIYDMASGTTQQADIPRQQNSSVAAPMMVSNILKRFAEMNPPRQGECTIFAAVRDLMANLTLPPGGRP
UniProt A2ABV5: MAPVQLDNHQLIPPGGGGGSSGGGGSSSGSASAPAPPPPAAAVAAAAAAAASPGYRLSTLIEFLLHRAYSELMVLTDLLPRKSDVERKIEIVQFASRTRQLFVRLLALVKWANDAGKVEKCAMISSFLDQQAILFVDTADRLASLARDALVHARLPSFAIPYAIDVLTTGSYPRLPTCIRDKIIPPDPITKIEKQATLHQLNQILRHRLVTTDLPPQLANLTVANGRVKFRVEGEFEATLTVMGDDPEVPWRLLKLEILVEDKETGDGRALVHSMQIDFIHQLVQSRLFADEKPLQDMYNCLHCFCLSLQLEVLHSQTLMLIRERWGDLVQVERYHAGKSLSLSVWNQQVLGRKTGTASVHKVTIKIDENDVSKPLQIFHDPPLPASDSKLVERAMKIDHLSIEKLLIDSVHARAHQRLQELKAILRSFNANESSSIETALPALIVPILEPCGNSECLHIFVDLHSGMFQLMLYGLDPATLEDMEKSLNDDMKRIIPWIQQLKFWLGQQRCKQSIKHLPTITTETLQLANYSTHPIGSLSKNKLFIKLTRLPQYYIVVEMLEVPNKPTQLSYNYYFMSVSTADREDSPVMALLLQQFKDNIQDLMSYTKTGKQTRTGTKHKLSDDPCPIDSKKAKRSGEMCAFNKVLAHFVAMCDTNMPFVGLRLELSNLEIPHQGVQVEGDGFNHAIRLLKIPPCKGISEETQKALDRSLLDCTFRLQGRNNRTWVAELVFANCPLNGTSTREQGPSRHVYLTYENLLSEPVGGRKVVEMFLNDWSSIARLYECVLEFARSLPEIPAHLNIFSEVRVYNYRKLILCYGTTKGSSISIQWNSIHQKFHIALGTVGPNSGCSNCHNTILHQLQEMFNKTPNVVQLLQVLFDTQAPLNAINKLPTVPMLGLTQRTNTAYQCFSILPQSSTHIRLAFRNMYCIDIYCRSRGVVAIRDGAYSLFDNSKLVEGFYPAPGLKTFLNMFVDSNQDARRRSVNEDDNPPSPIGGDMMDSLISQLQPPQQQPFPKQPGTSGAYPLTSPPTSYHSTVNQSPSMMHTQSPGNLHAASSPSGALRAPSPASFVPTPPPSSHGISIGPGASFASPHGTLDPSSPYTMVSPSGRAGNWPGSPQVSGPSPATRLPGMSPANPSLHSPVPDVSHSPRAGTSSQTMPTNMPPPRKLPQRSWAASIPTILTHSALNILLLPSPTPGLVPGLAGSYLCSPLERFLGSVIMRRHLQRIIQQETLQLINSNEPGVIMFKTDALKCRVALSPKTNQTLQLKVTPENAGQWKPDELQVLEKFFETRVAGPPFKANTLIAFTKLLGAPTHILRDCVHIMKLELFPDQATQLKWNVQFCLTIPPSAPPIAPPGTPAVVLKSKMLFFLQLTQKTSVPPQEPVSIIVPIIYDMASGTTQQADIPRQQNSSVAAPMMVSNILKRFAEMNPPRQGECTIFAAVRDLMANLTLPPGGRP
UniProt P49336: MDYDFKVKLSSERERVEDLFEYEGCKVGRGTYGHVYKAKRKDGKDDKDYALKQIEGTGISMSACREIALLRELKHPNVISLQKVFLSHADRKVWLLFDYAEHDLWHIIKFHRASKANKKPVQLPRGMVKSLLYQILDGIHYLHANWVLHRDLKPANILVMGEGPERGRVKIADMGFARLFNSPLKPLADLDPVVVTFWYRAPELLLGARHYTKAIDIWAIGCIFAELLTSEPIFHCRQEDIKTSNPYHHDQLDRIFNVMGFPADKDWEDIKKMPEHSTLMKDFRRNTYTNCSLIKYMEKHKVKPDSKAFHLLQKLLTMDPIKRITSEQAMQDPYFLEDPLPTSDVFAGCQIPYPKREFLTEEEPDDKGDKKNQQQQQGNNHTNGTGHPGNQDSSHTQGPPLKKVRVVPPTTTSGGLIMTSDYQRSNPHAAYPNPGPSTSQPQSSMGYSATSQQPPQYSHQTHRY

B1: Elk-1 (protein, UniProt P19419 1-428)
chain: MDPSVTLWQFLLQLLREQGNGHIISWTSRDGGEFKLVDAEEVARLWGLRKNKTNMNYDKLSRALRYYYDKNIIRKVSGQKFVYKFVSYPEVAGCSTEDCPPQPEVSVTSTMPNVAPAAIHAAPGDTVSGKPGTPKGAGMAGPGGLARSSRNEYMRSGLYSTFTIQSLQPQPPPHPRPAVVLPSAAPAGAAAPPSGSRSTSPSPLEACLEAEEAGLPLQVILTPPEAPNLKSEELNVEPGLGRALPPEVKVEGPKEELEVAGERGFVPETTKAEPEVPPQEGVPARLPAVVMDTAGQAGGHAASSPEISQPQKGRKPRDLELPLSPSLLGGPGPERTPGSGSGSGLQAPGPALTPSLLPTHTLTPVLLTPSSLPPSIHFWSTLSPIAPRSPAKLSFQFPSSGSAQVHIPSISVDGLSTPVVLSPGPQKP
B2: phospho-Elk-1 (protein, UniProt P19419 1-428)
chain: B1 chain
modifications: phosphorylated (detected with a phospho-Elk antibody; site not given)
B3: tagged Elk-1 (protein, UniProt P19419 1-428)
chain: B1 chain
B4: MED23 (in HEK293 cells) (protein, UniProt Q9ULK4 1-1368)
chain: METQLQSIFEEVVKTEVIEEAFPGMFMDTPEDEKTKLISCLGAFRQFWGGLSQESHEQCIQWIVKFIHGQHSPKRISFLYDCLAMAVETGLLPPRLVCESLINSDTLEWERTQLWALTFKLVRKIIGGVDYKGVRDLLKVILEKILTIPNTVSSAVVQQLLAAREVIAYILERNACLLPAYFAVTEIRKLYPEGKLPHWLLGNLVSDFVDTFRPTARINSICGRCSLLPVVNNSGAICNSWKLDPATLRFPLKGLLPYDKDLFEPQTALLRYVLEQPYSRDMVCNMLGLNKQHKQRCPVLEDQLVDLVVYAMERSETEEKFDDGGTSQLLWQHLSSQLIFFVLFQFASFPHMVLSLHQKLAGRGLIKGRDHLMWVLLQFISGSIQKNALADFLPVMKLFDLLYPEKEYIPVPDINKPQSTHAFAMTCIWIHLNRKAQNDNSKLQIPIPHSLRLHHEFLQQSLRNKSLQMNDYKIALLCNAYSTNSECFTLPMGALVETIYGNGIMRIPLPGTNCMASGSITPLPMNLLDSLTVHAKMSLIHSIATRVIKLAHAKSSVALAPALVETYSRLLVYMEIESLGIKGFISQLLPTVFKSHAWGILHTLLEMFSYRMHHIQPHYRVQLLSHLHTLAAVAQTNQNQLHLCVESTALRLITALGSSEVQPQFTRFLSDPKTVLSAESEELNRALILTLARATHVTDFFTGSDSIQGTWCKDILQTIMSFTPHNWASHTLSCFPGPLQAFFKQNNVPQESRFNLKKNVEEEYRKWKSMSNENDIITHFSMQGSPPLFLCLLWKMLLETDHINQIGYRVLERIGARALVAHVRTFADFLVYEFSTSAGGQQLNKCIEILNDMVWKYNIVTLDRLILCLAMRSHEGNEAQVCYFIIQLLLLKPNDFRNRVSDFVKENSPEHWLQNDWHTKHMNYHKKYPEKLYFEGLAEQVDPPVQIQSPYLPIYFGNVCLRFLPVFDIVIHRFLELLPVSKSLETLLDHLGGLYKFHDRPVTYLYNTLHYYEMHLRDRAFLKRKLVHAIIGSLKDNRPQGWCLSDTYLKCAMNAREENPWVPDDTYYCRLIGRLVDTMAGKSPGPFPNCDWRFNEFPNPAAHALHVTCVELMALAVSGKEVGNALLNVVLKSQPLVPRENITAWMNAIGLIITALPEPYWIVLHDRIVSVISSPSLTSETEWVGYPFRLFDFTACHQSYSEMSCSYTLALAHAVWHHSSIGQLSLIPKFLTEVLLPIVKTEFQLLYVYHLVGPFLQRFQQERTRCMIEIGVAFYDMLLNVDQCSTHLNYMDPICDFLYHMKYMFTGDSVKEQVEKIICNLKPALKLRLRFITHISKMEPAAVPPQAMNSGSPAPQSNQVPVSLPVTQ
B5: tagged phospho-Elk-1 (protein, UniProt P19419 1-428)
chain: B1 chain
modifications: phosphorylated (detected with a phospho-Elk antibody; site not given)
B6: Elk-1 (expressed in MEFs) (protein, UniProt P19419 1-428)
chain: B1 chain
B7: Elk-GFP fusion protein (protein, UniProt P19419 1-428)
chain: B1 chain
B8: MED23 (protein, UniProt Q9ULK4 1-1368)
chain: B4 chain

Columns and labels:
[1] = target: MED14 (human (endogenous in HeLa)) (UniProt O60244); test: co-IP; MED14 immunoprecipitates from lysates of serum-starved or TPA-stimulated HeLa cells, endogenous proteins; immunoblot
[2] = target: HA-tagged MED14 (human) (UniProt O60244); test: co-IP; anti-HA immunoprecipitates from lysates of HEK293 cells transfected with tagged MED14 and Elk-1, serum-starved, EGF, or EGF after SB290190; immunoblot
[3] = target: HA-tagged MED14 (human) (UniProt O60244); test: co-IP; anti-HA immunoprecipitates from the lysates left after the MED23 immunoprecipitation, HEK293 cells transfected with tagged MED14 and Elk-1, serum-starved or EGF-treated; immunoblot
[4] = target: MED14 (mouse, in MEFs) (mouse (endogenous in MEFs)) (UniProt A2ABV5); test: co-IP; MED14 immunoprecipitates from lysates of MED23 wt and MED23-/- MEFs transfected with a vector for Elk-1 (serum-starved or TPA) or Elk-GFP; immunoblot
[5] = target: MED14 (human (endogenous in HeLa)) (UniProt O60244); test: co-IP; endogenous proteins (Supplementary Figure S2c); cells not shown
[6] = target: CDK8 (human (endogenous in HeLa)) (UniProt P49336); test: as above

Row | Binder | binding [1] | binding [2] | binding [3] | further results
1 | B1 | binds | – | – | –
2 | B2 | binds | – | – | –
3 | B3 | – | binds | binds | –
4 | B4 | – | binds | binds | –
5 | B5 | – | binds | binds | –
6 | B6 | – | – | – | binding [4]: binds
7 | B7 | – | – | – | binding [4]: binds
8 | B8 | binds | – | – | binding [5]: binds; binding [6]: binds
